# Test results published in US20200270627A1 (COMMONWEALTH SCIENTIFIC AND INDUSTRIAL RESEARCH ORGANISATION, published 2020).
# No constants are given. Whether binding was seen depends on the method and setting. In cells and extracts the contact can be indirect. Some binding calls cover weakened binding; strength is not graded here. Where a sequence is shown, tags or fusion partners need not be part of it.
# T1: Sr33 1-160:CFP (Ae. tauschii (Triticum tauschii))
# T1 chain: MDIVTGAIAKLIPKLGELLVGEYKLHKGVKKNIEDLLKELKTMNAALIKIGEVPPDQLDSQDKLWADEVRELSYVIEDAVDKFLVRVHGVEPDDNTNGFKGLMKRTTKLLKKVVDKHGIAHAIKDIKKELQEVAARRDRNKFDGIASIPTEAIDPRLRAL
# Biological target: T1, Sr33 1-160:CFP (Ae. tauschii (Triticum …))
# Test: co-immunoprecipitation with anti-GFP antibodies from N. benthamiana leaf cells
# Details: remark: other sources report otherwise
binder,measurement,value
"Sr33 1-160:HA (other, also called full CC domain of Sr33 fused to a C-terminal HA tag; not shown: C-terminal HA tag (vector pBIN19-35S::GTW:3HA)) MDIVTGAIAKLIPKLGELLVGEYKLHKGVKKNIEDLLKELKTMNAALIKIGEVPPDQLDSQDKLWADEVRELSYVIEDAVDKFLVRVHGVEPDDNTNGFKGLMKRTTKLLKKVVDKHGIAHAIKDIKKELQEVAARRDRNKFDGIASIPTEAIDPRLRAL",binding,binds
